Assay results published in article PMC3834829, “A signature motif mediating selective interactions of BCL11A with the NR2E/F subfamily of orphan nuclear receptors” (Nucleic Acids Research, 2013).
No constants are given. Whether binding was seen depends on the method and setting. For part of these data: Binding can be weak; no strength is given.

By UniProt entry, the sequences of proteins in these tests, tags left out. Where a name states a change or a piece, a line headed by the entry shows the natural chain unless it says otherwise.
UniProt Q15406: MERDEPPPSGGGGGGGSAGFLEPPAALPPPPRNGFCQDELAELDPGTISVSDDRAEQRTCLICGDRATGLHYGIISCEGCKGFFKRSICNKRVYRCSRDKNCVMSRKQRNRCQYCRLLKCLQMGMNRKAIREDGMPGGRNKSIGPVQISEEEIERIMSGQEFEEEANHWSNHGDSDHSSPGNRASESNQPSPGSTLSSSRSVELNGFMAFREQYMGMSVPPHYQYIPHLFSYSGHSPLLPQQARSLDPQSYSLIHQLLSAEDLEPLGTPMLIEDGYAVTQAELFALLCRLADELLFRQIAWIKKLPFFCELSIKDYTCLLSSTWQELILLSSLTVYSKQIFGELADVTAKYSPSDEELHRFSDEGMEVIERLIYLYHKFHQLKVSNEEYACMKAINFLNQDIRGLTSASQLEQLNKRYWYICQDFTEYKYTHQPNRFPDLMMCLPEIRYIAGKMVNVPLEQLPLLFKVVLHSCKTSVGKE
UniProt O00482: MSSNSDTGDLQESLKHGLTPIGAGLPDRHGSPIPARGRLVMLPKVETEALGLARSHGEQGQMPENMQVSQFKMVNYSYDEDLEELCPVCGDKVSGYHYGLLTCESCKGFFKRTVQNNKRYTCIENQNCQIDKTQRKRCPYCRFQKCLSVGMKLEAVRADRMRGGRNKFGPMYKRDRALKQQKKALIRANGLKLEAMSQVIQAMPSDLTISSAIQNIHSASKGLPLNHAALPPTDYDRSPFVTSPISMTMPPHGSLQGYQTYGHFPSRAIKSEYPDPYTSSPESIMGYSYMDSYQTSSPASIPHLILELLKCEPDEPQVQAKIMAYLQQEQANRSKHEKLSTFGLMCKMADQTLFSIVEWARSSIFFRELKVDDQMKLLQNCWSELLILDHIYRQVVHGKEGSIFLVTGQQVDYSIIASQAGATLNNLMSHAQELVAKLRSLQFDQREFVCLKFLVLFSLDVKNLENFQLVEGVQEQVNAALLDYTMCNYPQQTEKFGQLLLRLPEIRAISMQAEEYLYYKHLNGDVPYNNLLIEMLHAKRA
UniProt P35398: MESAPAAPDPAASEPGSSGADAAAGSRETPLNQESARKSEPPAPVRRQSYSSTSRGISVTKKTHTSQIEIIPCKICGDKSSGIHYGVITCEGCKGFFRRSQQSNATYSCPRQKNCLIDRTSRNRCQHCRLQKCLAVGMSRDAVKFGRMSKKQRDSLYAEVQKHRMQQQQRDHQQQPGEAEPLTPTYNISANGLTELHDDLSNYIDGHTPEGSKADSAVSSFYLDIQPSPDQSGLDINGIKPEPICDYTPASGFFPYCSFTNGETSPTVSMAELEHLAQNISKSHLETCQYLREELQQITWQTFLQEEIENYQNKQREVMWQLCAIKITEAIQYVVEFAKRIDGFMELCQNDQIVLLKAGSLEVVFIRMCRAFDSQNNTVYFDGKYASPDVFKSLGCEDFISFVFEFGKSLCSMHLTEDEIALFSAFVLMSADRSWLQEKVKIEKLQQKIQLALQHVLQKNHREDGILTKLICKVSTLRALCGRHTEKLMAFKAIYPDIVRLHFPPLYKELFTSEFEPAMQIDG
UniProt Q92753: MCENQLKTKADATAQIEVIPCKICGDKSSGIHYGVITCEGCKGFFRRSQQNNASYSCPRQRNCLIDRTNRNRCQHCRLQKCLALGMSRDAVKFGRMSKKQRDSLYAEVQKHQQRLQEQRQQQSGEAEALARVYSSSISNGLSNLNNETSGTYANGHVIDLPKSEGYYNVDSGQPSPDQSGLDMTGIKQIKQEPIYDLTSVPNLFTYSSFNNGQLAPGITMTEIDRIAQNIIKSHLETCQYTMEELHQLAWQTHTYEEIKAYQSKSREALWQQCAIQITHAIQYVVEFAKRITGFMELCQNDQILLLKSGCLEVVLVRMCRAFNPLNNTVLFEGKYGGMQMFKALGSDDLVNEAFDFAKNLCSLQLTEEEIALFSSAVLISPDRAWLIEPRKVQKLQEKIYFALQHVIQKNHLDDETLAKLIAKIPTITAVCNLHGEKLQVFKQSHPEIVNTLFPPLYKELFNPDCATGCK
UniProt P10828: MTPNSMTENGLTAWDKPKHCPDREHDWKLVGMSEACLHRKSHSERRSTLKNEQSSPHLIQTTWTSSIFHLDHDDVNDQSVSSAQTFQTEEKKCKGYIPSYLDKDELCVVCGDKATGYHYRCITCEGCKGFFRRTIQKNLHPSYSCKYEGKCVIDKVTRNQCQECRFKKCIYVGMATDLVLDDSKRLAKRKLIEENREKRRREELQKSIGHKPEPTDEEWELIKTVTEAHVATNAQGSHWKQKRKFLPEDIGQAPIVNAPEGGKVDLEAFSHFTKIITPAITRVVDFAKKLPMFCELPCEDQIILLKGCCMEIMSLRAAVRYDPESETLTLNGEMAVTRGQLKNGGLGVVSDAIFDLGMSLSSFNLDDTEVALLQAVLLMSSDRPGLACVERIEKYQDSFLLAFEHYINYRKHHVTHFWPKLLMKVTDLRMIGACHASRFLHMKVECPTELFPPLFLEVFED

What was measured:
LexA-BCL11A RID2 G662A = target: T1, LexA-BCL11A RID2 G662A (UniProt Q9H165); assay: two-hybrid; S. cerevisiae L40; LexA DBD fusion with VP16 AAD-NR fusion; β-galactosidase activity in cell-free extracts; vehicle only or no ligand
T1 sequence: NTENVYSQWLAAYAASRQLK

LexA-BCL11A RID2 L660A = target: T2, LexA-BCL11A RID2 L660A (UniProt Q9H165); assay: as above
T2 sequence: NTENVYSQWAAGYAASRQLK

LexA-BCL11A RID2 Q658A = target: T3, LexA-BCL11A RID2 Q658A (UniProt Q9H165); assay: as above
T3 sequence: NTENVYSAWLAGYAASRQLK

LexA-BCL11A RID2 S657A = target: T4, LexA-BCL11A RID2 S657A (UniProt Q9H165); assay: as above
T4 sequence: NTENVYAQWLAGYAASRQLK

LexA-BCL11A RID2 V655A = target: T5, LexA-BCL11A RID2 V655A (UniProt Q9H165); assay: as above
T5 sequence: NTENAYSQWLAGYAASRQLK

LexA-BCL11A RID2 W659A = target: T6, LexA-BCL11A RID2 W659A (UniProt Q9H165); assay: as above
T6 sequence: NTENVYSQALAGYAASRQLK

LexA-BCL11A RID2 Y656A = target: T7, LexA-BCL11A RID2 Y656A (UniProt Q9H165); assay: as above
T7 sequence: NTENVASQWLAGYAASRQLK

LexA-BCL11A RID2 Y663A = target: T8, LexA-BCL11A RID2 Y663A (UniProt Q9H165); assay: as above
T8 sequence: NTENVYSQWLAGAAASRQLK

LexA-BCL11A-(310–325) [1] = target: T9, LexA-BCL11A-(310–325) (UniProt Q9H165); assay: as above
T9 sequence: PPAMDFSRRLRELAGN

LexA-BCL11A-(651–670) [2] = target: T10, LexA-BCL11A-(651–670) (UniProt Q9H165); assay: as above
T10 sequence: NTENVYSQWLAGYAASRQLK

LexA-BCL11A-(310–325) [3] = target: T9, LexA-BCL11A-(310–325); assay: two-hybrid; S. cerevisiae L40; LexA DBD fusion with VP16 AAD-NR fusion; β-galactosidase activity in cell-free extracts; 10^-6 M cognate ligand added
LexA-BCL11A-(651–670) [4] = target: T10, LexA-BCL11A-(651–670); assay: as above
LexA-NSD1-(790–818) [5] = assay: two-hybrid; S. cerevisiae L40; LexA DBD fusion with VP16 AAD-NR fusion; β-galactosidase activity in cell-free extracts; vehicle only or no ligand
LexA-NSD1-(790–818) [6] = assay: two-hybrid; S. cerevisiae L40; LexA DBD fusion with VP16 AAD-NR fusion; β-galactosidase activity in cell-free extracts; 10^-6 M cognate ligand added

Molecule	binding (LexA-BCL11A-(310–325) [1])	binding (LexA-BCL11A-(651–670) [2])	binding (LexA-NSD1-(790–818) [5])	further results
AAD-COUP-TFI-LBD-(151–467) (domain or fragment)	binds	binds		binding (LexA-BCL11A RID2 G662A): binds; binding (LexA-BCL11A RID2 L660A): no binding; binding (LexA-BCL11A RID2 Q658A): binds; binding (LexA-BCL11A RID2 S657A): no binding; binding (LexA-BCL11A RID2 V655A): no binding; binding (LexA-BCL11A RID2 W659A): no binding; binding (LexA-BCL11A RID2 Y656A): no binding; binding (LexA-BCL11A RID2 Y663A): no binding
AAD-GCNF-LBD-(138–475) (from UniProt Q15406) (domain or fragment)	no binding	no binding		
AAD-LRH-1-LBD-(133–495) (from UniProt O00482) (domain or fragment)	no binding	no binding		
AAD-PPARγ-LBD-(173–475) (domain or fragment)				binding (LexA-BCL11A-(310–325) [3]): no binding; binding (LexA-BCL11A-(651–670) [4]): no binding
AAD-RORα-LBD-(106–469) (from UniProt P35398) (domain or fragment)	no binding	no binding		
AAD-RORβ-LBD-(98–459) (from UniProt Q92753) (domain or fragment)	no binding	no binding		
AAD-TRβ-LBD-(169–456) (from UniProt P10828) (domain or fragment)				binding (LexA-BCL11A-(310–325) [3]): no binding; binding (LexA-BCL11A-(651–670) [4]): no binding
AAD-COUP-TFII-LBD-(144–414) (domain or fragment, UniProt P24468 144-414) MRREAVQRGRMPPTQPTHGQFALTNGDPLNCHSYLSGYISLLLRAEPYPTSRFGSQCMQPNNIMGIENICELAARMLFSAVEWARNIPFFPDLQITDQVALLRLTWSELFVLNAAQCSMPLHVAPLLAAAGLHASPMSADRVVAFMDHIRIFQEQVEKLKALHVDSAEYSCLKAIVLFTSDACGLSDVAHVESLQEKSQCALEEYVRSQYPNQPTRFGKLLLRLPSLRTVSSSVIEQLFFVRLVGKTPIETLIRDMLLSGSSFNWPYMAIQ			binds	
AAD-EAR2-LBD-(121–399) (domain or fragment, UniProt P10588 121-399) MRKEAVQRGRIPHSLPGAVAASSGSPPGSALAAVASGGDLFPGQPVSELIAQLLRAEPYPAAAGRFGAGGGAAGAVLGIDNVCELAARLLFSTVEWARHAPFFPELPVADQVALLRLSWSELFVLNAAQAALPLHTAPLLAAAGLHAAPMAAERAVAFMDQVRAFQEQVDKLGRLQVDSAEYGCLKAIALFTPDACGLSDPAHVESLQEKAQVALTEYVRAQYPSQPQRFGRLLLRLPALRAVPASLISQLFFMRLVGKTPIETLIRDMLLSGSTFNWP			binds	
AAD-VDR-LBD-(123–426) (domain or fragment, UniProt P11473 123-426) KLSEEQQRIIAILLDAHHKTYDPTYSDFCQFRPPVRVNDGGGSHPSRPNSRHTPSFSGDSSSSCSDHCITSSDMMDSSSFSNLDLSEEDSDDPSVTLELSQLSMLPHLADLVSYSIQKVIGFAKMIPGFRDLTSEDQIVLLKSSAIEVIMLRSNESFTMDDMSWTCGNQDYKYRVSDVTKAGHSLELIEPLIKFQVGLKKLNLHEEEHVLLMAICIVSPDRPGVQDAALIEAIQDRLSNTLQTYIRCRHPPPGSHLLYAKMIQKLADLRSLNEEHSKQYRCLSFQPECSMKLTPLVLEVFGNEI				binding (LexA-NSD1-(790–818) [6]): binds
AAD-HNF4γ-LBD-(88–408) (domain or fragment, UniProt Q14541 88-408) RISTRRSTFDGSNIPSINTLAQAEVRSRQISVSSPGSSTDINVKKIASIGDVCESMKQQLLVLVEWAKYIPAFCELPLDDQVALLRAHAGEHLLLGATKRSMMYKDILLLGNNYVIHRNSCEVEISRVANRVLDELVRPFQEIQIDDNEYACLKAIVFFDPDAKGLSDPVKIKNMRFQVQIGLEDYINDRQYDSRGRFGELLLLLPTLQSITWQMIEQIQFVKLFGMVKIDNLLQEMLLGGASNDGSHLHHPMHPHLSQDPLTGQTILLGPMSTLVHADQISTPETPLPSPPQGSGQEQYKIAANQASVISHQHLSKQKQL			binds	
AAD-ERRα-LBD-(169–423) (domain or fragment, UniProt P11474 169-423) PLPFPGPFPAGPLAVAGGPRKTAAPVNALVSHLLVVEPEKLYAMPDPAGPDGHLPAVATLCDLFDREIVVTISWAKSIPGFSSLSLSDQMSVLQSVWMEVLVLGVAQRSLPLQDELAFAEDLVLDEEGARAAGLGELGAALLQLVRRLQALRLEREEYVLLKALALANSDSVHIEDAEAVEQLREALHEALLEYEAGRAGPGGGAERRRAGRLLLTLPLLRQTAGKVLAHFYGVKLEGKVPMHKLFLEMLEAMMD			binds	
